Results published in US20240301069A1.
Results are given in words; binding and its absence hold for the method and conditions named. Some results given as binding are weak or reduced against the parent protein; the word gives no strength.

By UniProt entry, the sequences of proteins in these tests, tags left out.
UniProt Q9NZQ7: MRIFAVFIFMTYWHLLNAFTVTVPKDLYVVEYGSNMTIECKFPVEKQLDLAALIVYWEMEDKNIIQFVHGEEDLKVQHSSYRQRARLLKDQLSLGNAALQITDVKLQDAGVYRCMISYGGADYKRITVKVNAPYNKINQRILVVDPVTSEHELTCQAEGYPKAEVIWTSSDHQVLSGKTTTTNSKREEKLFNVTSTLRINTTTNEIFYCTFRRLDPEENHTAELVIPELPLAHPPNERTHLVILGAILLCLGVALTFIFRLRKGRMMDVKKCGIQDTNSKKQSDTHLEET

Columns and labels:
[1] = target: recombinant human PD-L1 protein carrying a hFc label (human) (UniProt Q9NZQ7); test: ELISA on coated hPD-L1 hFc, antibody at 10 µg/mL
[2] = target: recombinant human PD-L1 protein carrying a hFc label (human) (UniProt Q9NZQ7); test: ELISA, hPD-L1 hFc coated at 1 µg/mL, antibody at 10 µg/mL, HRP goat anti-mouse IgG

B1: F016-21 (antibody, V domains shown)
VH: EVQLQQSGPELVKPGASVKMSCKASGYTFTDYVMHWVKQKPGQGLEWIGYINPYNDGTKFNEKFKGKATLTSDKSSSTAYMELSSLTSEDSAVYYCAKQTLDYWGQGTSVTVSS
VL: DIVLTQSPASLAVSLGQRATISCRASESVEYFGTTLMQWYQQRPGQPPKLLIYAASNVESGVPARFSGSGSGTDFSLNIHPVEEDDIAMYFCQQSRKVPYTFGGGTKLEIKR
With B1 the binding [1] was “binds” and the binding [2] was “binds”.

B2: F016-193 (antibody, V domains shown)
VH: EVQLQQSGPELVKPGASVKMSCKASGYTFTSYVMHWVKQKPGQGLEWIGYINPHNDGNKYNEKFKGKATLTSDKSSSSAYMELSSLTSEDSAVYYCAKQTMDYWGQGTSVTVSS
VL: DIVLTQSPASLAVSLGQRATLSCRASESVEFYGTTLMQWFQQKPGQPPKLLIYAASNVESGVPARFSGSGSGTDFSLNIHPVEEDDIAMYFCQQSRKVPYTFGGGTKLEIKR
For B2, the binding [1] was “binds” and the binding [2] was “binds”.

B3: F016-870 (antibody, V domains shown)
VH: EVQLQESGPSLVKPSQTLSLTCSVTGDSITSGYWNWIRKFPGNKLEYMGYISYTGSTYQNPSLKSRISFTRDTSKNQYYLQLSSVTTEDTATYYCARSRAWIRTYFDYWGQGTTLTVSS
VL: EIVLTQSPALMAASPGEKVTITCSVSSSISSSNLHWYQQKSETSPKPWIYGTSNLASGVPVRFSGSGSGTSYSLTISSMEAEDAATYYCQQWSSYPLTFGAGTKLELKR
For B3, the binding [1] was “binds” and the binding [2] was “binds”.
